Assay [1] has as its target T1, Mid2p iMYTH bait (Mid2p-Cub-TF) (S. cerevisiae) (UniProt P36027).
T1 sequence: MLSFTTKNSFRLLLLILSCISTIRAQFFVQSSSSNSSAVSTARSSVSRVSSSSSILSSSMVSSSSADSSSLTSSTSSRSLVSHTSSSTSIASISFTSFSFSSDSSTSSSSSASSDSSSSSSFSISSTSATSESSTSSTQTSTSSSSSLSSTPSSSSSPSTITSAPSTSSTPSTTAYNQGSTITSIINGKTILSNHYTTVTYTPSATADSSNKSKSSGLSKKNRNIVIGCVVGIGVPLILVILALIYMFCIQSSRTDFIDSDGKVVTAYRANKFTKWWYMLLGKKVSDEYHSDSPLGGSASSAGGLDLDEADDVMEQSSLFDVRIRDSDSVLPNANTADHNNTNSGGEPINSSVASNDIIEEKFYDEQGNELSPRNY
The experiment in a line: two-hybrid; integrated membrane yeast two-hybrid (iMYTH, split ubiquitin) at 30°: Wsc1p or Mid2p bait with C-terminal Cub-(YFP)-LexA-VP16, NubG-X cDNA library preys; library screen and bait dependency test with artificial bait A0286/A0287 as control; growth and blue colour on SD-WAH or SD-WH + …; THY.AP4 or L40 strains.

Assay [2] concerns the target T2, Wsc1p iMYTH bait (Wsc1p-Cub-TF) (S. cerevisiae) (UniProt P54867).
T2 sequence: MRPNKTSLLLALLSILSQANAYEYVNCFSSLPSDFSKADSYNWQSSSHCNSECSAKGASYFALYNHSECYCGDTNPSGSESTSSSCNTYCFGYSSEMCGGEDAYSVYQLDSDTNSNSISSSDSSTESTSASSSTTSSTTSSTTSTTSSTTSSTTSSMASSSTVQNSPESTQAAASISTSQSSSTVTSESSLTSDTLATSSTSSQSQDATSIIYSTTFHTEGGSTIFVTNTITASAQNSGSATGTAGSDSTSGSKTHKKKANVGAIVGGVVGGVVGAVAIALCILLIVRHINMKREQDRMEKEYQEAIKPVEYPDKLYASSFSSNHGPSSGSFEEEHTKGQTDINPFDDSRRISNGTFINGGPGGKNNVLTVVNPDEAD
The description is as above.

No constants are given. Whether binding was seen depends on the method and setting. Some binding calls cover weakened binding; strength is not graded here.

Binding data for one molecule are collected here from PMC6469404.

B1: YPL238C prey (NubG-X library clone) (protein, UniProt Q99401 1-129)
chain: MLELALGVPSLLSASTLSRPALASSFSNASTLLSFVFFFFFFKDSSPKASAMSSVGSFSASASAETLLDFFFFFFNPANKSSPEPFSLPFTAASKSSGITFLVFFFFFSAGSNPNSAAKSEDISCVLII
Regarding B1, the binding result in assay [1] and in assay [2] was “binds” each time.
